In PubChem BioAssay AID2685 (National Center for Advancing Translational Sciences (NCATS), 2010) one finds cell number change and AC50 data, which are given here for 37 compounds.

Some of the results follow. These are further read-outs of the screen, such as a control signal, another cell line or another target. No call is given for them. The list favours compounds with an active or inconclusive main result. Words in brackets tell the shape of the fitted curve; partial curves, single points and poor fits give uncertain potencies.

Broadly, the AC50 is the concentration giving half of the maximal activity seen.

A short description of this assay: qHTS Assay for Lipid Storage Modulators in Drosophila S3 Cells.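 As to cell number change: cells counted by Cell Tracker Red CMTPX staining in the red channel.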 Particulars: BODIPY lipid droplet fluorescence, 18-24 h; for cell number change: measured here: cell count max response, cells fed with added oleic acid. The essentials: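 Laser-scanning cytometry quantifies lipid droplet accumulation (500–530 nm total intensity; droplet/cell object ratio) in oleic acid-fed (400 uM added) Drosophila S3 cells treated with a concentration series. 20 uM Triacsin C defined 100% inhibition.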
Background: Quantitative high-throughput screening tests each substance at several concentrations.

[1] abbreviates: measured here: lipid fluorescence (Fed channel) AC50, cells fed with added oleic acid.
Setting [2] is: measured here: cell number channel AC50, cells fed with added oleic acid.

Regarding `O=C(CN(c1cc(C(F)(F)F)ccc1Cl)S(=O)(=O)c1ccccc1)NCc1cccnc1`, the cell number change is -17%.

Consider `O=C(Nc1ccccc1)C1CCCN1/C=C/C(=O)C(F)(F)F` (stereo unspecified), for which the cell number change worked out at 14.7%. Also, the AC50 under setting [1] was 32.6 µM [rising, single point].

As to `CC(=O)c1cccc(CN2CCCC(C(=O)Nc3ccc(-c4ccco4)cc3)C2)c1` (stereo unspecified), the cell number change came to 13.4%. In addition, the AC50 under setting [1] is 35.5 µM [rising, single point].

As to `COC(=O)c1sccc1NC(=O)c1ccc(Br)o1`, the cell number change is -25.1%. In addition, under setting [1], the AC50 is 0.291 µM [rising, partial curve, poor fit].

Turning to `C=CCn1c(C)cc(-c2csc(NC)n2)c1C`, the cell number change was -3.25%. The half-maximal activity concentration (AC50) under setting [1] was 29.1 µM [falling, single point].

In the case of `CCC(C)NC(=O)c1n[nH]c(=O)c2ccccc12` (stereo unspecified), the cell number change is -6.04%. Under setting [1], the AC50 is 3.26 µM [falling, full curve].

In the case of `CCN(CC)C(=O)N1CCC(NC(=O)c2ccccc2)CC1`, the cell number change was -88.1%. For the same compound, the concentration at half-maximal activity (AC50) under setting [2] was 5.8 µM [falling, partial curve]. The AC50 under setting [1] is 6.51 µM [falling, partial curve].

Take `C=CCn1c(=N)c(C(=O)OCC)cc2c(=O)n3cc(C)ccc3nc21`: the cell number change is -1.75%. In addition, the concentration at half-maximal activity (AC50) under setting [1] is 14.6 µM [rising, single point].

For the compound `COc1ccc(CCNC(=O)COC(=O)c2ccc[nH]c2=O)cc1`, under setting [2], the AC50 is 0.58 µM [falling, single point].

With `Oc1[nH]c2ccccc2c1N=NC(=S)N1CCOCC1`, the cell number change was -50.9%. Under setting [2], the concentration at half-maximal activity (AC50) was 11.6 µM [falling, partial curve]. Besides, the AC50 under setting [1] was 1.84 µM [falling, full curve].

Regarding `CN(C(=O)COC(=O)c1ccc2c(c1)OCCO2)C1CCCCC1`, the AC50 under setting [2] was 0.0058 µM [falling, full curve, poor fit].

Take `Cc1cc(C)cc(OCc2ccc(C(=O)N3N=C(C(F)F)CC3(O)C(F)F)o2)c1` (stereo unspecified): the cell number change was -33.3%. The half-maximal activity concentration (AC50) under setting [2] is 0.0058 µM [falling, full curve, poor fit].

Regarding `COc1ccc(NC(=O)C2C3C=CC(C3)C2C(=O)O)cc1` (stereo unspecified), the cell number change is -2.56%. For the same compound, the half-maximal activity concentration (AC50) under setting [2] was 1.46 µM [rising, partial curve].

Consider `COc1ccc2c(c1)[nH]c(=O)c1sc3ccccc3c12`, for which the cell number change is -30.4%. The concentration at half-maximal activity (AC50) under setting [2] is 4.11 µM [falling, full curve, poor fit]. The concentration at half-maximal activity (AC50) under setting [1] was 3.26 µM [falling, partial curve, poor fit].

In the case of `NC(=O)C(Cc1ccccc1)NS(=O)(=O)c1ccc(N2CCCC2=O)cc1` (stereo unspecified), the cell number change was 11.9%. The AC50 under setting [1] is 1.16 µM [falling, full curve].

`CCC(=O)Nc1ccc(NC(=O)c2cccc3c(Br)cccc23)cc1`: the cell number change was determined as 2.47%. The concentration at half-maximal activity (AC50) under setting [1] is 29.1 µM [falling, single point].

Regarding `Cc1ccc(NS(=O)(=O)c2ccc(Cl)c(C(=O)Nc3ccccc3-c3nc4ccccc4[nH]3)c2)cc1C`, the cell number change was -31.2%. Also, under setting [2], the AC50 is 2.59 µM [rising, single point]. Further, under setting [1], the AC50 is 29.1 µM [falling, single point].

As for `COCc1c(C(=O)N2CCN(Cc3ccc(C#N)cc3)CC2)oc2ccccc12`, the cell number change came to 21.4%. Also, the AC50 under setting [2] is 0.00461 µM [rising, full curve, poor fit]. Besides, the AC50 under setting [1] was 25.9 µM [falling, single point].

With `COC(=O)C(C)(C)ONC(=O)Nc1ccccc1Br`, the cell number change turned out to be 1.93%. Besides, the concentration at half-maximal activity (AC50) under setting [1] was 29.1 µM [rising, single point].

As for `COc1ccc(NC(=S)NCCc2ccc(Cl)cc2)c(OC)c1`, the cell number change was 18.3%.

As to `CCCn1c(N)c(C(=O)CSc2nnc3n2CCCCC3)c(=O)n(C)c1=O`, the cell number change is -11.2%. The concentration at half-maximal activity (AC50) under setting [1] is 0.517 µM [rising, single point].

For the compound `Cc1ccc(SC2CC(=O)N(c3ccc4c(c3)OCCO4)C2=O)cc1` (stereo unspecified), the cell number change is -30%. In addition, under setting [2], the AC50 is 25.1 µM [falling, single point]. The AC50 under setting [1] is 31.6 µM [falling, single point].

Take `COC(=O)NNC(=O)COc1ccc2ccccc2c1Br`: the cell number change was -50%. Besides, under setting [2], the AC50 is 29.1 µM [falling, single point].

With `CNC(=O)C1CC(=O)N(c2ccc(OCC(=O)Nc3ccccc3C)cc2)C1` (stereo unspecified), the cell number change is -95.8%. Further, the AC50 under setting [2] was 20.6 µM [falling, single point].

On to `COc1ccc2c(C)cc(SCC(=O)Nc3ncc(Cl)cc3Cl)nc2c1`, for which the cell number change is 11.4%. In addition, the concentration at half-maximal activity (AC50) under setting [2] was 6.51 µM [rising, single point].

For `O=C(Nc1ccccc1NC(=O)c1ccccc1F)c1ccccc1F`, the cell number change came out at 6.67%. Also, the AC50 under setting [1] is 29.1 µM [rising, single point].

On to `Cc1oc(/N=C/c2cccc([N+](=O)[O-])c2)c(C#N)c1C`, for which the concentration at half-maximal activity (AC50) under setting [1] is 0.116 µM [falling, full curve, poor fit].

For the compound `CCOC(=O)c1c(CSC(=N)N)n(-c2ccc(Br)cc2)c2cc(Br)c(OC(C)=O)cc12`, the cell number change is -84.8%. For the same compound, the concentration at half-maximal activity (AC50) under setting [2] was 29.1 µM [falling, single point]. The AC50 under setting [1] was 29.1 µM [falling, single point].

Turning to `Cc1ccc(-c2nnc3cccc(Cl)n23)cc1`, the cell number change was found to be 16.4%. Under setting [2], the AC50 is 5.8 µM [rising, partial curve, poor fit].

Take `CC1(C)CC(C(=O)Nc2nccs2)CCO1` (stereo unspecified): the cell number change stood at 4.61%.

Consider `COC(=O)C(C)NS(=O)(=O)c1ccc(NC(C)=O)cc1` (stereo unspecified), for which the cell number change is 2.7%. Also, the AC50 under setting [2] is 0.651 µM [falling, single point]. Moreover, the AC50 under setting [1] is 0.116 µM [falling, full curve, poor fit].

Turning to `COc1cc(NC(=O)c2ccc(C)cc2C)ccc1NC(=O)c1cccs1`, the cell number change was -7.62%.

On to `CCC(=O)Nc1ccc(C(=O)CSc2nnc(-c3cccnc3)o2)cc1`, for which the half-maximal activity concentration (AC50) under setting [1] is 7.31 µM [falling, single point].

With `CC(=O)c1ccc(N2CCN(S(=O)(=O)c3cc(-c4cc(C)no4)ccc3C(C)C)CC2)cc1`, the cell number change was -31.5%. Moreover, the AC50 under setting [2] is 13 µM [falling, partial curve, poor fit]. In addition, the AC50 under setting [1] was 2.31 µM [falling, partial curve, poor fit].

`O=C(N/N=C/c1cccnc1)c1cc(-c2ccccc2)nc2ccccc12`: the cell number change turned out to be 10.4%. Besides, the AC50 under setting [1] is 0.517 µM [rising, full curve, poor fit].

Regarding `CCN1CCN(C(=S)c2ccc(OC)cc2)CC1`, the cell number change was -9.54%. The AC50 under setting [2] was 1.03 µM [rising, full curve, poor fit]. Under setting [1], the concentration at half-maximal activity (AC50) was 0.103 µM [falling, partial curve, poor fit].

In the case of `COc1cccc(C2/C(=C(\O)c3ccc4c(c3)OCCO4)C(=O)C(=O)N2c2nnc(C)s2)c1` (stereo unspecified), the cell number change was determined as 19.8%. The AC50 under setting [2] was 0.13 µM [rising, full curve, poor fit].
